The list shows a part of the results. Further columns of the screen follow, without active or inactive calls. Most of these compounds were active or inconclusive in the main read-out, so they are no random draw. The note in brackets gives the kind of curve behind each potency; many fits are weak.
Assay: IkB Signaling
Conditions: ABC-DLBCL IkBa-CBG/CBR dual luciferase ratio (green luciferase fused to IkBa over red control in OCI-Ly3 lymphoma cells), 4 h
Outline: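 Luminescence ratio of IκBα-fused green versus native red beetle luciferase in OCI-Ly3 cells, 4 h post-doxycycline with compound; red signal alone, scaled from basal (0%) to zero light (-100%), flagged nonspecific or cytotoxic effects.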

[1] = measured here: control luc red channel unless noted

CC1N(C)c2cc(NC(=O)c3ccco3)ccc2C1(C)C (centres undefined)
AC50 [1]: 39.8 µM [falling, single point]

COc1ccc(Cn2c(C3CC3)nc3ccc(NC(=O)c4ccco4)cc3c2=O)cc1
AC50 [1]: 31.6 µM [falling, partial curve]

COc1ccc(-n2nc3c(N4CCC(C(=O)NC5CCCCC5)CC4)nnc(C)c3c2C)cc1
AC50 [1]: 12.6 µM [falling, partial curve]

CCc1nc2c(cnn2-c2ccc(C)cc2)c(=O)n1Cc1ccccc1
AC50 [1]: 6.31 µM [falling, partial curve]

CCOC(=O)N1CCN(C(=O)C2CCN(c3ncnc4c3sc3cccc(F)c34)CC2)CC1
AC50 [1]: 15.8 µM [falling, partial curve]

Cc1ccc(-c2onc(C)c2C)cc1S(=O)(=O)NCc1ccc(N(C)C)cc1
AC50 [1]: 20 µM [falling, partial curve]

CCc1ccc(NC(=O)Cn2c(=O)n(CCCCC(=O)NCc3ccccc3Cl)c(=O)c3ccccc32)cc1
AC50 [1]: 39.8 µM [falling, single point]

COc1ccc(NC(=O)c2cc(C)nc3c2c(C)nn3-c2ccc(C)cc2)cc1OC
AC50 [1]: 1 µM [falling, full curve, poor fit]

CCOc1cc(OCC)cc(C(=O)Nc2cccc(-c3nc4ccccc4[nH]3)c2)c1
AC50 [1]: 2 µM [falling, full curve]

C=CCC(CC=C)(CNC(=O)C(=O)Nc1ccc(C)cc1)c1ccccc1
AC50 [1]: 1.26 µM [falling, full curve]

COc1ccccc1-c1nnc(C2CCN(C(=O)c3cccc(C)c3)CC2)o1
AC50 [1]: 31.6 µM [falling, single point]

O=C(NCc1ccccc1)C(=O)NCC(c1ccco1)S(=O)(=O)c1ccc(Cl)cc1 (centres undefined)
AC50 [1]: 39.8 µM [falling, single point]

CCCN1C(=O)c2[nH]nc(-c3ccccc3)c2C1c1cccc(O)c1 (centres undefined)
AC50 [1]: 20 µM [falling, single point]

Cc1ccc(NC(=O)c2oc3ccccc3c2NC(=O)Cc2ccccc2)cc1
AC50 [1]: 15.8 µM [falling, partial curve]

CC12CC(NC(=O)N1CCc1ccccc1)c1ccccc1O2 (centres undefined)
AC50 [1]: 20 µM [falling, partial curve]

COc1ccccc1NC(=O)CSC1=Nc2ccccc2C2=NC(Cc3ccccc3)C(=O)N12 (centres undefined)
AC50 [1]: 15.8 µM [falling, partial curve]

CCn1cc2nc(SCC(=O)Nc3ccc(C)cc3)n(Cc3ccc(C)cc3)c(=O)c2n1
AC50 [1]: 25.1 µM [falling, single point]

c1ccc(-c2nnc(-c3ccccn3)nn2)nc1
AC50 [1]: 10 µM [falling, partial curve]

Nn1c(CSc2nc3ccccc3o2)nnc1CSc1nc2ccccc2o1
AC50 [1]: 10 µM [falling, partial curve]

Cc1[nH]c2ccc(Br)cc2c1CCNC(=O)c1cc2ccccc2oc1=O
AC50 [1]: 10 µM [falling, partial curve]

O=S(=O)(NCCS(=O)(=O)N1CCN(c2cccc(Cl)c2)CC1)c1ccc(F)cc1
AC50 [1]: 3.98 µM [falling, partial curve]

CCOc1ccc(C2=NC(c3cccs3)=Nc3ccc(CC)cc3N2)cc1OCC
AC50 [1]: 0.2 µM [rising, full curve]

COc1ccc(-n2nc3cc(C)c(NC(=O)c4ccc(-c5ccc(Br)cc5)o4)cc3n2)cc1
AC50 [1]: 10 µM [rising, partial curve]

CC(=O)N1CCCc2cc(S(=O)(=O)N3CCCC(C(=O)Nc4ccc(C)cc4C)C3)ccc21 (centres undefined)
AC50 [1]: 0.0501 µM [falling, full curve]

O=C(Nc1ccc2nsnc2c1)c1ccc2c(c1)OCO2
AC50 [1]: 7.94 µM [falling, partial curve]

CCCCOc1ccc(NC(=O)CSCC(=O)OCC)cc1
AC50 [1]: 15.8 µM [falling, partial curve]

Cc1cccc(NC(=O)CN2C(=O)C(c3ccccc3)=NC23CCC(C)CC3)c1 (centres undefined)
AC50 [1]: 12.6 µM [falling, partial curve]

Cc1cc(C)n(CCc2nc3c4ccccc4nc(N4CCN(c5cccc(C)c5C)CC4)n3n2)n1
AC50 [1]: 39.8 µM [falling, single point]

CC1CCc2cc(F)ccc2N1C(=O)c1cc2nc(-c3ccco3)cc(C(F)(F)F)n2n1 (centres undefined)
AC50 [1]: 15.8 µM [falling, partial curve]

CCCCN(C)CCCNC(=O)CN1N=C(c2ccc(OC)cc2)CCC1=O
AC50 [1]: 39.8 µM [falling, single point]

Nc1nc2c(s1)CCc1c-2cnn1-c1ccccc1
AC50 [1]: 39.8 µM [falling, single point]

Cc1csc(NC(=O)c2c(O)c3c(n(CC(C)C)c2=O)CCCC3)n1
AC50 [1]: 3.16 µM [falling, full curve]

Cc1ccc(CCNC(=O)c2ccc3[nH]c(C)c(C)c3c2)cc1
AC50 [1]: 25.1 µM [falling, single point]

O=C(NCCOc1ccccc1)c1ccc2c(c1)OCO2
AC50 [1]: 12.6 µM [falling, partial curve]

COc1ccc(OC)c(NS(=O)(=O)c2ccc(-n3cccn3)cc2)c1
AC50 [1]: 15.8 µM [falling, partial curve]

CCCCNC(=O)C(CC)Sc1nc2ccccc2c(=O)n1Cc1ccco1 (centres undefined)
AC50 [1]: 25.1 µM [falling, partial curve]

Cc1cccc(N(C)S(=O)(=O)c2nnc(NC(=O)c3cccs3)s2)c1
AC50 [1]: 20 µM [falling, single point]

CCCCCOC(=O)NCCOC(=O)Nc1ccc(C(=O)OCC)cc1
AC50 [1]: 31.6 µM [falling, partial curve]

CCOC(=O)c1cccc(NC(=O)Cn2c(=O)c3cccn3c3ccccc32)c1
AC50 [1]: 15.8 µM [falling, partial curve]

CCCCNC(=O)CC1Nc2ccccc2NC1=O (centres undefined)
AC50 [1]: 3.16 µM [rising, partial curve]

CCn1nnnc1SCC(=O)Nc1nc(-c2cccs2)cs1
AC50 [1]: 39.8 µM [falling, single point]

COc1ccccc1NC(=O)C1=C(C)Nc2nc(SCc3ccccc3)nn2C1c1cccc(O)c1 (centres undefined)
AC50 [1]: 12.6 µM [falling, partial curve]

C=CCc1cccc2cc(C(=O)N3CCN(C(=O)OCC)CC3)c(=O)oc12
AC50 [1]: 7.94 µM [rising, single point] [measured here: IkB-luc green channel]

CCn1c(=O)cc(OCC(=O)N2CCN(c3ccc(C)cc3)C(C)C2)c2ccccc21 (centres undefined)
AC50 [1]: 12.6 µM [falling, partial curve]

COc1ccc(-c2noc(CCC(=O)N3CCN(Cc4ccccc4)CC3)n2)cc1
AC50 [1]: 12.6 µM [falling, partial curve]

CCOC(=O)c1c(C)[nH]c(C(=O)CN2C(=O)NC(CC)(c3ccccc3)C2=O)c1C (centres undefined)
AC50 [1]: 25.1 µM [falling, partial curve]

CC(c1ccco1)N(C(=O)COc1ccc(Cl)cc1Cl)c1ccccn1 (centres undefined)
AC50 [1]: 25.1 µM [falling, single point]

COc1ccc(CCN2CC(C#N)=C3c4cc(OC)c(OC)cc4CCN3C2)cc1OC
AC50 [1]: 12.6 µM [falling, partial curve]

COc1ccccc1N1CCN(C(=O)c2sc3nc(-c4ccc(F)cc4)cn3c2C)CC1
AC50 (measured here: IkB-luc green channel): 15.8 µM [falling, partial curve] | AC50 (measured here: control luc red channel): 3.98 µM [falling, full curve]

O=S(=O)(c1ccc(F)cc1)N(CCO)CC(O)Cn1c2ccccc2c2ccccc21 (centres undefined)
AC50 [1]: 20 µM [falling, partial curve]

Cc1cccn2cc(-c3cccc(NC(=O)C(C)C)c3)nc12
AC50 [1]: 10 µM [falling, partial curve]

Cc1ccc(-c2cn3cccnc3n2)cc1NC(=O)Nc1ccc(F)cc1
AC50 [1]: 6.31 µM [rising, partial curve]

COc1ccc2c(c1)c(=O)c(S(=O)(=O)c1ccc(F)cc1)cn2Cc1ccccc1Cl
AC50 [1]: 6.31 µM [falling, single point]

COc1cccc2c(C)cc3nnc(SCC(=O)Nc4ccc(C)cc4)n3c12
AC50 [1]: 20 µM [falling, partial curve]

O=C(Cn1ncc2c1-c1ccccc1OC2)N1CCN(c2ccccc2)CC1
AC50 [1]: 39.8 µM [falling, single point]

O=C(c1ccc2c(c1)OCO2)c1cn(Cc2ccc(Cl)cc2)c2ccc(F)cc2c1=O
AC50 [1]: 15.8 µM [falling, partial curve]

CCCCOc1ccc(C(=O)N2CCCCC2CCN2CCOCC2)cc1 (centres undefined)
AC50 [1]: 39.8 µM [falling, single point]

CC1CCC(NC(=O)c2ccc(CS(=O)(=O)c3ccc(Cl)cc3)o2)CC1 (centres undefined)
AC50 [1]: 25.1 µM [falling, single point]

CCN(CC)S(=O)(=O)c1ccc(C(=O)NCCSc2c(-c3ccc(F)cc3)[nH]c3ccccc23)cc1
AC50 [1]: 5.01 µM [falling, full curve]

O=C(Nc1c(C(=O)N2CCN(c3ccccc3F)CC2)oc2ccccc12)c1cccc(F)c1
AC50 [1]: 0.631 µM [falling, full curve, poor fit]

CCC1CCCCN1C(=O)Nc1cccc(NC(=O)N2CCCCC2CC)c1 (centres undefined)
AC50 [1]: 20 µM [falling, partial curve]

COc1ccc(CCNC(=O)C(=O)NCC(c2ccco2)S(=O)(=O)c2ccc(C)cc2)cc1 (centres undefined)
AC50 [1]: 0.0398 µM [rising, full curve, poor fit]

CCOc1cc(/C=C(/C#N)c2ccc(F)cc2)ccc1OCc1ccc(C(=O)O)o1
AC50 [1]: 25.1 µM [falling, partial curve]

From PubChem BioAssay AID445 (National Center for Advancing Translational Sciences (NCATS), 2006)
